# Experimental data as given in the supplement of paper PMC7666118.
# Chains of the proteins cited; added tags and fusions are not shown. Lines headed by an entry give the natural chain unless they say otherwise; changes in a name come on top.
# UniProt Q969H6: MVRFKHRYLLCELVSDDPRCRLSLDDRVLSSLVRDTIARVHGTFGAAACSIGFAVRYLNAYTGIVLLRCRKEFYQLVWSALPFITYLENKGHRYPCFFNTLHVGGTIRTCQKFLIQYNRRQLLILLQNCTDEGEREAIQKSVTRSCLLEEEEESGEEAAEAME
# UniProt Q8IWE5: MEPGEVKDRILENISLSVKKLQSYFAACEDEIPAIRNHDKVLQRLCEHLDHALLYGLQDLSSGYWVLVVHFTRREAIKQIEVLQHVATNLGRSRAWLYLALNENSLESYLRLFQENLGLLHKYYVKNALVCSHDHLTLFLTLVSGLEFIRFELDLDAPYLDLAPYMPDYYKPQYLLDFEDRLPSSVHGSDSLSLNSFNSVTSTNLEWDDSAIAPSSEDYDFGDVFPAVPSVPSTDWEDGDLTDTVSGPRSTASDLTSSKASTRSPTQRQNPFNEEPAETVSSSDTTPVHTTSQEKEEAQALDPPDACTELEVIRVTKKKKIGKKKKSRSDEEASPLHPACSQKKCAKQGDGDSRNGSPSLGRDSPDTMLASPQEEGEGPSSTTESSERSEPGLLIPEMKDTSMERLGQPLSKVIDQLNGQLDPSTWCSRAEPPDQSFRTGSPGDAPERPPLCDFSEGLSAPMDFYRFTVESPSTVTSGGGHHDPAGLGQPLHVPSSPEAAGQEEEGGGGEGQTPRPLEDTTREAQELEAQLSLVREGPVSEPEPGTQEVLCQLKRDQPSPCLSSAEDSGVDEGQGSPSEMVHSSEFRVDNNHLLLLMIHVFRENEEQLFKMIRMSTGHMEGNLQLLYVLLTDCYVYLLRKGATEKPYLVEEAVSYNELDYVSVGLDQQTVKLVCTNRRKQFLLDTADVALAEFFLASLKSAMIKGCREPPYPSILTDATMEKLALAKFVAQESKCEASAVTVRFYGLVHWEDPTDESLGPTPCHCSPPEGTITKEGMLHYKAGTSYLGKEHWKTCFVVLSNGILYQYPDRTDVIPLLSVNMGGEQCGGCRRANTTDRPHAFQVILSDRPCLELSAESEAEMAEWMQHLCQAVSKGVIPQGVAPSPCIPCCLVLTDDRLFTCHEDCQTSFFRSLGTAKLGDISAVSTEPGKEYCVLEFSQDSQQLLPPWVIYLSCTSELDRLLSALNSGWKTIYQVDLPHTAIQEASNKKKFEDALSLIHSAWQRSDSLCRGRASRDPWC
# UniProt Q92733: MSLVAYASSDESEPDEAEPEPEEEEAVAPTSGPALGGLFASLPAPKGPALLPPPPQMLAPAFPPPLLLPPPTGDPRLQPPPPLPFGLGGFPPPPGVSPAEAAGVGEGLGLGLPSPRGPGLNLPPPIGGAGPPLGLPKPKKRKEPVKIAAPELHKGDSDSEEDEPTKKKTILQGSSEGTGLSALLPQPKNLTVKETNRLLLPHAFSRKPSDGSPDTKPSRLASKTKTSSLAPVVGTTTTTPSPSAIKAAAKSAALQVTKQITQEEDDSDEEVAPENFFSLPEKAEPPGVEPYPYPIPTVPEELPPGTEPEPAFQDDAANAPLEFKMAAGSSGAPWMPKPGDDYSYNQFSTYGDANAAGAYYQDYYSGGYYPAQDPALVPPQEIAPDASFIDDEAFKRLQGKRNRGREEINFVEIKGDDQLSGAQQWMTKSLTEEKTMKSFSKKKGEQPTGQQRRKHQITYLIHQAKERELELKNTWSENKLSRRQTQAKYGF
# UniProt Q9NR33: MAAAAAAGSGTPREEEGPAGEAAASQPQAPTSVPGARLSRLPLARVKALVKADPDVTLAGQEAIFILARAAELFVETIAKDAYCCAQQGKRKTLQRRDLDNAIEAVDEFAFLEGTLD
# UniProt P30154, whole entry: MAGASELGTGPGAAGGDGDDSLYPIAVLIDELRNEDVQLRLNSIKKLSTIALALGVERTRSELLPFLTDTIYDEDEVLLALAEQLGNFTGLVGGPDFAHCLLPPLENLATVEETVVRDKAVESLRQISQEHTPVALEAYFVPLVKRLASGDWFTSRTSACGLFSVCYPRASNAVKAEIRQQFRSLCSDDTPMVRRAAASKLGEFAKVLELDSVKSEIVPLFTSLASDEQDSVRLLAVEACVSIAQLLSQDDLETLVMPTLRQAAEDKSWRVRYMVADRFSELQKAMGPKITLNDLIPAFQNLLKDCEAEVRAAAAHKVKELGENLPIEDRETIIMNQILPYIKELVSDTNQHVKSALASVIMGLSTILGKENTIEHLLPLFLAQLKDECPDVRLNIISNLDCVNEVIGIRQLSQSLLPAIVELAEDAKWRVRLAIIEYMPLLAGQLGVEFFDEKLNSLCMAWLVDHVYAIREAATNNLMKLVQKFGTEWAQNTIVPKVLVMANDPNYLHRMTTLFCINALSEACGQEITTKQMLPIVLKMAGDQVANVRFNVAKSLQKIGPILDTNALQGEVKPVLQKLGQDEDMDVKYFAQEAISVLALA
# UniProt Q9H1D9: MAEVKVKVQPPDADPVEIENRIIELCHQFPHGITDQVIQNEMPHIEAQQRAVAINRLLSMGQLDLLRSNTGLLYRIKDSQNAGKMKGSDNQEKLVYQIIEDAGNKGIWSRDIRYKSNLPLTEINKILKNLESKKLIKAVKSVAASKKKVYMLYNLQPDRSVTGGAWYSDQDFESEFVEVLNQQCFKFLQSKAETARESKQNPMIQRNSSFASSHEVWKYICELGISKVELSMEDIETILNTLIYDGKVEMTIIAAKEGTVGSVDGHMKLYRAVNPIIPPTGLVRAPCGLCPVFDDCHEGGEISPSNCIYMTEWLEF
# UniProt Q9NXJ5: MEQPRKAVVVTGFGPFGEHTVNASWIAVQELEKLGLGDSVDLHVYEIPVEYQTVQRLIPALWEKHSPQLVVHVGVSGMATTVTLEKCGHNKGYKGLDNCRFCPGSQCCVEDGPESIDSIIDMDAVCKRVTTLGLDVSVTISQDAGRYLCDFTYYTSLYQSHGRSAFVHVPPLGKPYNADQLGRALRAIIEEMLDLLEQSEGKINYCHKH
# UniProt Q96C90: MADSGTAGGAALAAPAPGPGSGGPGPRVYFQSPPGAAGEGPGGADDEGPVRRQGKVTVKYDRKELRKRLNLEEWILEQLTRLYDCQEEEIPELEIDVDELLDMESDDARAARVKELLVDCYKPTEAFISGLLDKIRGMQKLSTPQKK
# UniProt O15318: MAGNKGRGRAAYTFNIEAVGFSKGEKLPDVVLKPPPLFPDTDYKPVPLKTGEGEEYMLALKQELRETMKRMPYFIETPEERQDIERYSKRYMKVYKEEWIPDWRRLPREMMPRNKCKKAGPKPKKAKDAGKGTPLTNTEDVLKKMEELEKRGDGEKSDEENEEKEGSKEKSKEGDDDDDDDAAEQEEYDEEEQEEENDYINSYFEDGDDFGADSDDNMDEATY
# UniProt P30405: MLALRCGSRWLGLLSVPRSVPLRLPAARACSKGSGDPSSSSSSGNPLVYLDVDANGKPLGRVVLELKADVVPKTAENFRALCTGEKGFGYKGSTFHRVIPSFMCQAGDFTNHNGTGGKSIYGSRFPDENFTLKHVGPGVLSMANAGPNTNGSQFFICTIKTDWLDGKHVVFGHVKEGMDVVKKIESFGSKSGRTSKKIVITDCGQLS
# UniProt P42338: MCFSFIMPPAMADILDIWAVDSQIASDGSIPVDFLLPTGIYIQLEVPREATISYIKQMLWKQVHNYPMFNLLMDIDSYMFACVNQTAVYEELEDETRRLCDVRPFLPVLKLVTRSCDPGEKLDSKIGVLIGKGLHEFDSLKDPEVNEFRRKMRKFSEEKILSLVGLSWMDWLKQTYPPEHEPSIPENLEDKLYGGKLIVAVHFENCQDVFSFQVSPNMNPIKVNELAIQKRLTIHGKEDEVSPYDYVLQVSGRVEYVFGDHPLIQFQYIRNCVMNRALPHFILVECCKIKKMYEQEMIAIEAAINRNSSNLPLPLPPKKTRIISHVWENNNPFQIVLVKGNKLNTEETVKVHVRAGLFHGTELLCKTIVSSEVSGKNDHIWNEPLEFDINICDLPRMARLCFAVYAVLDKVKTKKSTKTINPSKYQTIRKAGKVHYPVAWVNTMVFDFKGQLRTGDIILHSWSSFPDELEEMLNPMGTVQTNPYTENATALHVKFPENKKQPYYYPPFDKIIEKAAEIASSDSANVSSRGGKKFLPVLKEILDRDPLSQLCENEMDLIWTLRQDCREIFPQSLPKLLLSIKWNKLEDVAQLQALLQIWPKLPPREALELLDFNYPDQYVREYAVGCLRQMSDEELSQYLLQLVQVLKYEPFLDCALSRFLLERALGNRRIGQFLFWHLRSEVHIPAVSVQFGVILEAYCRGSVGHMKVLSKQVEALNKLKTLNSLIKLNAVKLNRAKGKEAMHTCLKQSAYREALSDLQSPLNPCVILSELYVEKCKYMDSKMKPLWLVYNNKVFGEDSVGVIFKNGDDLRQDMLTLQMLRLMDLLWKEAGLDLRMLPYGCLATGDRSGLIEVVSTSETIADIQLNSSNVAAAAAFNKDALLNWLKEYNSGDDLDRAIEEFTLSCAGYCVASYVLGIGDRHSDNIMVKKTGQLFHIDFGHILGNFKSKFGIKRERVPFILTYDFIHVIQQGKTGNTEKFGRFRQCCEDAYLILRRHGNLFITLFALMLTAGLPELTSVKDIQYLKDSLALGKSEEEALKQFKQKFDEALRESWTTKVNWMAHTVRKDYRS
# UniProt O43447: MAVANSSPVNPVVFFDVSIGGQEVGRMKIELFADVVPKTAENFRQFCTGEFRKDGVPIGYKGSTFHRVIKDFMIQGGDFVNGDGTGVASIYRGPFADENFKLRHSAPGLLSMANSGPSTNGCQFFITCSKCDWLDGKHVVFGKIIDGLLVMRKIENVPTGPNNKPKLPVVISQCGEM
# UniProt O60831: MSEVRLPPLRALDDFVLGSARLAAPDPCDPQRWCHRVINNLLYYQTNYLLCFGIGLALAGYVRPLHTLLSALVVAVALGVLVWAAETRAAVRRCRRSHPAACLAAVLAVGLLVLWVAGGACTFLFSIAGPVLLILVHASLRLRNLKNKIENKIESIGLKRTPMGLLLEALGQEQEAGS
# UniProt O15160, whole entry: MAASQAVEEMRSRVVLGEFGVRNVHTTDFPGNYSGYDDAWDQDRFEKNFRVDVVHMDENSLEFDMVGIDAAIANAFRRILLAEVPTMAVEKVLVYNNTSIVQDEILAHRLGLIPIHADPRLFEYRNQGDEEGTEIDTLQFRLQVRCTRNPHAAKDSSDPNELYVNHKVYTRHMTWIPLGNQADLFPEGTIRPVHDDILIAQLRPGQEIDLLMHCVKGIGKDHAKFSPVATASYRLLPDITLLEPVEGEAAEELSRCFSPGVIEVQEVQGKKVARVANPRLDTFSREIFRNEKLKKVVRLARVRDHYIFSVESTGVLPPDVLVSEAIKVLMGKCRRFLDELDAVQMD
# UniProt P54098: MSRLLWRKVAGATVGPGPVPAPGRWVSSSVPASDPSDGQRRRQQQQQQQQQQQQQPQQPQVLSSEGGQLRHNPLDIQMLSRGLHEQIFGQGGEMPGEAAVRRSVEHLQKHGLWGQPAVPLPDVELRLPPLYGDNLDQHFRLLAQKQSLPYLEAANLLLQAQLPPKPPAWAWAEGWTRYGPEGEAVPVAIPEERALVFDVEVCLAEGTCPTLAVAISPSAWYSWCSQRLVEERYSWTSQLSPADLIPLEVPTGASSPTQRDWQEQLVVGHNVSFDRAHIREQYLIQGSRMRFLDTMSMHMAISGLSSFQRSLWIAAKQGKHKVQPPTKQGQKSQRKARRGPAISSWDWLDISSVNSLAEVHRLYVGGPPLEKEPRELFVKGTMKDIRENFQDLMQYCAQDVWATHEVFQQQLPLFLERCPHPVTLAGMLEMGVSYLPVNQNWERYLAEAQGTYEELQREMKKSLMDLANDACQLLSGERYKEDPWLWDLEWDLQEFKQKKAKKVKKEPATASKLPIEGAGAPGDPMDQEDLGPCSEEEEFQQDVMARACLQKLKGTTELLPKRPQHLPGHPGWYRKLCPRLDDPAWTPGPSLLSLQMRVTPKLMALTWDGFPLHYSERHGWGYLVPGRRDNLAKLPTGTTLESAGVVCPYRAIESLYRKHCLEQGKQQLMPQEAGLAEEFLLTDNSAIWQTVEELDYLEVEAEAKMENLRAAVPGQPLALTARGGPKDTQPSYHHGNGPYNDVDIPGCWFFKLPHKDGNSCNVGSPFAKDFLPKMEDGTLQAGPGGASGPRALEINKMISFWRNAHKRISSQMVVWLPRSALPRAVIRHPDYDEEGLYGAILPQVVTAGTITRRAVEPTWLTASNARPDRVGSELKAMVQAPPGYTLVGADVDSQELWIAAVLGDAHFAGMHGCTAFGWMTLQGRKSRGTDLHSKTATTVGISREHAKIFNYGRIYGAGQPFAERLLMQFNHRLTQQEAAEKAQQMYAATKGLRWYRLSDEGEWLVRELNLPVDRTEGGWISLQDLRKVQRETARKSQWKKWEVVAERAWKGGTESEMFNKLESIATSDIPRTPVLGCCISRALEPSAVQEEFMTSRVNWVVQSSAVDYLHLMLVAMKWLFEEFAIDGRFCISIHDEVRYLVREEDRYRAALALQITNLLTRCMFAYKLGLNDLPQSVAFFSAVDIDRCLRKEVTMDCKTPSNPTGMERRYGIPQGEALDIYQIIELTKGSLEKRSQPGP
# Some of the results follow.
# Compound: COc1ccc(Cn2ccc3ccc(C(=O)NO)cc32)cc1
# Assay: dose-dependent thermal stabilisation call (2D-TPP, DLPTP, 10% FDR) (binary (1 = stabilised)); higher = stabilised by the compound
# Conditions: system: HL-60 intact cells; concentration range 0.04-10 µM
row,Target,dose-dependent thermal stabilisation call
1,PHF14 (UniProt O94880),inactive: 0
2,POP5 (UniProt Q969H6),inactive: 0
3,PRKAB1 (UniProt Q9Y478),inactive: 0
4,PLEKHM2 (UniProt Q8IWE5),inactive: 0
5,POLDIP3 (UniProt Q9BY77),inactive: 0
6,POLE3 (UniProt Q9NRF9),inactive: 0
7,PRCC (UniProt Q92733),inactive: 0
8,PRKCSH (UniProt P14314),inactive: 0
9,POLE4 (UniProt Q9NR33),inactive: 0
10,PPP2R1B (UniProt P30154),inactive: 0
11,POLR3F (UniProt Q9H1D9),inactive: 0
12,PPFIBP1 (UniProt Q86W92),inactive: 0
13,PHPT1 (UniProt Q9NRX4),inactive: 0
14,PIGW (UniProt Q7Z7B1),inactive: 0
15,PPP1R2 (UniProt P41236),active: 1
16,PRKCA (UniProt P17252),inactive: 0
17,PGPEP1 (UniProt Q9NXJ5),inactive: 0
18,PRKD3 (UniProt O94806),inactive: 0
19,PLSCR3 (UniProt Q9NRY6),inactive: 0

# Some values from the results shown.
# For dose-dependent thermal stabilisation call, POP5 (UniProt Q969H6) is entered as inactive: 0
# For dose-dependent thermal stabilisation call, PRKCA (UniProt P17252) is entered as inactive: 0

# (continued)

row,Target,dose-dependent thermal stabilisation call
1,PRKAR1A (UniProt P10644),inactive: 0
2,POLD3 (UniProt Q15054),inactive: 0
3,POLRMT (UniProt O00411),inactive: 0
4,PPP1R14B (UniProt Q96C90),inactive: 0
5,POLR3G (UniProt O15318),inactive: 0
6,PPIF (UniProt P30405),inactive: 0
7,PIK3CB (UniProt P42338),inactive: 0
8,PPWD1 (UniProt Q96BP3),inactive: 0
9,PPIH (UniProt O43447),inactive: 0
10,POLR2G (UniProt P62487),inactive: 0
11,PRAF2 (UniProt O60831),inactive: 0
12,PPFIBP2 (UniProt Q8ND30),inactive: 0
13,POMGNT1 (UniProt Q8WZA1),inactive: 0
14,PRAM1 (UniProt Q96QH2),inactive: 0
15,PLCB2 (UniProt Q00722),inactive: 0
16,POLR2A (UniProt P24928),inactive: 0
17,POLR1C (UniProt O15160),inactive: 0
18,POLG (UniProt P54098),inactive: 0
